Results taken from PMC4215718.
Results are given in words; binding and its absence hold for the method and conditions named. Binding seen in cells or lysates may run through a third protein. A yes stands for co-enrichment or nearness to the bait. Other partners may have been found. For some assays here: No binding means not detected with the bait. For some assays here: Where a sequence is shown, tags or fusion partners need not be part of it.

Chains of the proteins cited; added tags and fusions are not shown.
UniProt Q8TD16: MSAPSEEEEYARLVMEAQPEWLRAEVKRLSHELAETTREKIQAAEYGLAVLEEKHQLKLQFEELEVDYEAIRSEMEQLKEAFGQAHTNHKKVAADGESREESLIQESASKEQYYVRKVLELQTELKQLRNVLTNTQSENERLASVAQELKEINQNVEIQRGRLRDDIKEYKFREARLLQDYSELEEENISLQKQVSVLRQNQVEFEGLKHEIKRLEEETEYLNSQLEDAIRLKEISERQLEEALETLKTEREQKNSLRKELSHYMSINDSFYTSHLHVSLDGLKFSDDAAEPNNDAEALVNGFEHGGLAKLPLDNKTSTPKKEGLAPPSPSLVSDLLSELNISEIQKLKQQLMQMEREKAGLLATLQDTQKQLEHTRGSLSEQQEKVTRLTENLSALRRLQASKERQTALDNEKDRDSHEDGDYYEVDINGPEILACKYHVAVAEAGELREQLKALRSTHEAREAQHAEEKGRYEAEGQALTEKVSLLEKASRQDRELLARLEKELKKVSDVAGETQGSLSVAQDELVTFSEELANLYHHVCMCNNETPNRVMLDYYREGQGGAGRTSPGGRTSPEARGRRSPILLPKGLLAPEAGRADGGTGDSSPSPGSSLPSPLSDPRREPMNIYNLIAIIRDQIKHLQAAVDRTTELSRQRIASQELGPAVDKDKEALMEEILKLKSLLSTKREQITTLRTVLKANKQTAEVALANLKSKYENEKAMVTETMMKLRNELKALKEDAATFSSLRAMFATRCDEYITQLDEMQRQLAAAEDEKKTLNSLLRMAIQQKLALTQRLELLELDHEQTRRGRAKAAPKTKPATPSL
UniProt P63167: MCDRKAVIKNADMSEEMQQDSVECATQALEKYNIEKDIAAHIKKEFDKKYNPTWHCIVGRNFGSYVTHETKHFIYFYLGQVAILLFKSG
UniProt Q9Y266: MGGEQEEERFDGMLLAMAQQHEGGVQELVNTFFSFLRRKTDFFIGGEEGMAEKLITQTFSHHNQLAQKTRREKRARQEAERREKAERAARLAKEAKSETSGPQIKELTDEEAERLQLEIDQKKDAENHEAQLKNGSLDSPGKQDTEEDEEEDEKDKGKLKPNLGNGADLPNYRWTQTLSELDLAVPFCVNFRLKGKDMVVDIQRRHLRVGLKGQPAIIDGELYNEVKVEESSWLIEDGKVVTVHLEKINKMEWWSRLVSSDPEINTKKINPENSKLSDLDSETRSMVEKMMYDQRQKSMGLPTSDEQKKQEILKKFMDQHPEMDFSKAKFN
UniProt Q8WW35: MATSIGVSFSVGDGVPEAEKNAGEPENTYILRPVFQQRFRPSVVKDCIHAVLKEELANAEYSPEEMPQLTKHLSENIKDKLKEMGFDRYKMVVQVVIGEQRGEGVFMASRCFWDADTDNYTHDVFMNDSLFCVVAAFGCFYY
UniProt P63172: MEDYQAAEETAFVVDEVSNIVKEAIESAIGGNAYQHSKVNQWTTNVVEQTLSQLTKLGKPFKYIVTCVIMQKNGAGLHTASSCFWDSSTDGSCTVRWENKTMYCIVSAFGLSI
UniProt Q8WVS4: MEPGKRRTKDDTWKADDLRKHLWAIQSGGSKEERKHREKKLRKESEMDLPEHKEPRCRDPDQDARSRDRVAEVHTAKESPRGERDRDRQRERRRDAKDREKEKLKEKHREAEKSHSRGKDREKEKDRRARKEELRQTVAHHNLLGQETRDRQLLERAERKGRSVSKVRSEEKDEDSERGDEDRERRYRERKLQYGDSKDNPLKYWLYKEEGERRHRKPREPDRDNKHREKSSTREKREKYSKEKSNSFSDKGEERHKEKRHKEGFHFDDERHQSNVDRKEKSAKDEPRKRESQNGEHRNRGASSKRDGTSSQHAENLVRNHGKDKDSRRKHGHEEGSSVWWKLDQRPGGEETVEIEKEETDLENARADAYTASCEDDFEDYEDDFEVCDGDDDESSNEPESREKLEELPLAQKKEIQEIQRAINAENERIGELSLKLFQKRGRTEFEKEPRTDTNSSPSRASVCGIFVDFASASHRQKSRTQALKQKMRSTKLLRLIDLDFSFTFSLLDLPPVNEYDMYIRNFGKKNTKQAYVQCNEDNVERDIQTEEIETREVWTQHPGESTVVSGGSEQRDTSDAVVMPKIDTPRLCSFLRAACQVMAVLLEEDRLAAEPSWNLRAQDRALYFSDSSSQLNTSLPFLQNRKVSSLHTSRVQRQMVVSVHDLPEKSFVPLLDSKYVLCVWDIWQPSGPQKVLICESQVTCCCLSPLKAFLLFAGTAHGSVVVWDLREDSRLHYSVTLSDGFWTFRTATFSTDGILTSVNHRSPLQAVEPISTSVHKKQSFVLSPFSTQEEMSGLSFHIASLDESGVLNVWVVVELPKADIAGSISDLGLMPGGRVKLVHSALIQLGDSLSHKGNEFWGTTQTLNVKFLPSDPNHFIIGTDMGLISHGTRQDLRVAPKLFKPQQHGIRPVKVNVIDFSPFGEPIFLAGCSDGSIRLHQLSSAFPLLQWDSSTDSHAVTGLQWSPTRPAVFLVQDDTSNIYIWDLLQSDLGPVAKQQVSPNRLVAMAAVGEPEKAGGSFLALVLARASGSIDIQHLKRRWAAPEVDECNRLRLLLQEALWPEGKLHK
UniProt Q8TCX1: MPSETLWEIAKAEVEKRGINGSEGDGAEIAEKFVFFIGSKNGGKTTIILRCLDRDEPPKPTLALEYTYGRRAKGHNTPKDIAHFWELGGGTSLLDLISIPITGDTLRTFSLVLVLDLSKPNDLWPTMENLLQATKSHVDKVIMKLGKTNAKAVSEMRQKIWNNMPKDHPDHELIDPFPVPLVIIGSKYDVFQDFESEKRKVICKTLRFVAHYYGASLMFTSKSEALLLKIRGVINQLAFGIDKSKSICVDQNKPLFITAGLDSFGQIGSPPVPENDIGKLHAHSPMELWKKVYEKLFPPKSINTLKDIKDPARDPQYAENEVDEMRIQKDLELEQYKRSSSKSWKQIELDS
UniProt Q9NP97: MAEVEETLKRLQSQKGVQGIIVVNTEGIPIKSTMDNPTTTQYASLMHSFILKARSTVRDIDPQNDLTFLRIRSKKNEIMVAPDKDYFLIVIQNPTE

T1: mGFP–WDR34 (human), Q96EX3
T1 chain: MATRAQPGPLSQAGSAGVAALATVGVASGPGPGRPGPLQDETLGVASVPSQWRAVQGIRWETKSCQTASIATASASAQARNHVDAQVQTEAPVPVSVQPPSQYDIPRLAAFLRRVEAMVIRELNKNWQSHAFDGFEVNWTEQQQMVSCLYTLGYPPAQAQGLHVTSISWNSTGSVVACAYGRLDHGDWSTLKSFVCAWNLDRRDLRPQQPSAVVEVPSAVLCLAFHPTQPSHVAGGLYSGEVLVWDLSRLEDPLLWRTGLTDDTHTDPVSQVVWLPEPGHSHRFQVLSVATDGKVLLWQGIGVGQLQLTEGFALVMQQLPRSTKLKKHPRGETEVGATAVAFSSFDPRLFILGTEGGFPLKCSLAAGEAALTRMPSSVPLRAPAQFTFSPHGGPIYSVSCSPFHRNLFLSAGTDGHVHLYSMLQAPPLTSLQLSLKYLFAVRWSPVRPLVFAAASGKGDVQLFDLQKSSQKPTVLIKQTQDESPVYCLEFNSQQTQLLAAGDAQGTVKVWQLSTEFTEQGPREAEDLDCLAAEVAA

B1: NudCD3 (protein, UniProt Q8IVD9 1-361)
chain: METGAAELYDQALLGILQHVGNVQDFLRVLFGFLYRKTDFYRLLRHPSDRMGFPPGAAQALVLQVFKTFDHMARQDDEKRRQELEEKIRRKEEEEAKTVSAAAAEKEPVPVPVQEIEIDSTTELDGHQEVEKVQPPGPVKEMAHGSQEAEAPGAVAGAAEVPREPPILPRIQEQFQKNPDSYNGAVRENYTWSQDYTDLEVRVPVPKHVVKGKQVSVALSSSSIRVAMLEENGERVLMEGKLTHKINTESSLWSLEPGKCVLVNLSKVGEYWWNAILEGEEPIDIDKINKERSMATVDEEEQAVLDRLTFDYHQKLQGKPQSHELKVHEMLKKGWDAEGSPFRGQRFDPAMFNISPGAVQF
B2: Tctex-3, P51808 1-116 (protein)
chain: MEEYHRHCDEVGFNAEEAHNIVKECVDGVLGGEDYNHNNINQWTASIVEQSLTHLVKLGKAYKYIVTCAVVQKSAYGFHTASSCFWDTTSDGTCTVRWENRTMNCIVNVFAIAIVL
B3: roadblock-2, Q8TF09 1-96 (protein)
chain: MAEVEETLKRIQSHKGVIGTMVVNAEGIPIRTTLDNSTTVQYAGLLHHLTMKAKSTVRDIDPQNDLTFLRIRSKKHEIMVAPDKEYLLIVIQNPCE
B4: bicaudal 1 (protein, UniProt Q96G01 1-975)
chain: MAAEEVLQTVDHYKTEIERLTKELTETTHEKIQAAEYGLVVLEEKLTLKQQYDELEAEYDSLKQELEQLKEAFGQSFSIHRKVAEDGETREETLLQESASKEAYYLGKILEMQNELKQSRAVVTNVQAENERLTAVVQDLKENNEMVELQRIRMKDEIREYKFREARLLQDYTELEEENITLQKLVSTLKQNQVEYEGLKHEIKRFEEETVLLNSQLEDAIRLKEIAEHQLEEALETLKNEREQKNNLRKELSQYISLNDNHISISVDGLKFAEDGSEPNNDDKMNGHIHGPLVKLNGDYRTPTLRKGESLNPVSDLFSELNISEIQKLKQQLMQVEREKAILLANLQESQTQLEHTKGALTEQHERVHRLTEHVNAMRGLQSSKELKAELDGEKGRDSGEEAHDYEVDINGLEILECKYRVAVTEVIDLKAEIKALKEKYNKSVENYTDEKAKYESKIQMYDEQVTSLEKTTKESGEKMAHMEKELQKMTSIANENHSTLNTAQDELVTFSEELAQLYHHVCLCNNETPNRVMLDYYRQSRVTRSGSLKGPDDPRGLLSPRLARRGVSSPVETRTSSEPVAKESTEASKEPSPTKTPTISPVITAPPSSPVLDTSDIRKEPMNIYNLNAIIRDQIKHLQKAVDRSLQLSRQRAAARELAPMIDKDKEALMEEILKLKSLLSTKREQIATLRAVLKANKQTAEVALANLKNKYENEKAMVTETMTKLRNELKALKEDAATFSSLRAMFATRCDEYVTQLDEMQRQLAAAEDEKKTLNTLLRMAIQQKLALTQRLEDLEFDHEQSRRSKGKLGKSKIGSPKVSGEASVTVPTIDTYLLHSQGPQTPNIRVSSGTQRKRQFSPSLCDQSRPRTSGASYLQNLLRVPPDPTSTESFLLKGPPSMSEFIQGHRLSKEKRLTVAPPDCQQPAASVPPQCSQLAGRQDCPTVSPDTALPEEQPHSSSQCAPLHCLSKPPHP
B5: LIS1 (protein, UniProt P43034 1-410)
chain: MVLSQRQRDELNRAIADYLRSNGYEEAYSVFKKEAELDVNEELDKKYAGLLEKKWTSVIRLQKKVMELESKLNEAKEEFTSGGPLGQKRDPKEWIPRPPEKYALSGHRSPVTRVIFHPVFSVMVSASEDATIKVWDYETGDFERTLKGHTDSVQDISFDHSGKLLASCSADMTIKLWDFQGFECIRTMHGHDHNVSSVAIMPNGDHIVSASRDKTIKMWEVQTGYCVKTFTGHREWVRMVRPNQDGTLIASCSNDQTVRVWVVATKECKAELREHEHVVECISWAPESSYSSISEATGSETKKSGKPGPFLLSGSRDKTIKMWDVSTGMCLMTLVGHDNWVRGVLFHSGGKFILSCADDKTLRVWDYKNKRCMKTLNAHEHFVTSLDFHKTAPYVVTGSVDQTVKVWECR
B6: Spindly (protein, UniProt Q96EA4 1-605)
chain: MEADIITNLRCRLKEAEEERLKAAQYGLQLVESQNELQNQLDKCRNEMMTMTESYEQEKYTLQREVELKSRMLESLSCECEAIKQQQKMHLEKLEEQLSRSHGQEVNELKTKIEKLKVELDEARLSEKQLKHQVDHQKELLSCKSEELRVMSERVQESMSSEMLALQIELTEMESMKTTLKEEVNELQYRQEQLELLITNLMRQVDRLKEEKEEREKEAVSYYNALEKARVANQDLQVQLDQALQQALDPNSKGNSLFAEVEDRRAAMERQLISMKVKYQSLKKQNVFNREQMQRMKLQIATLLQMKGSQTEFEQQERLLAMLEQKNGEIKHLLGEIRNLEKFKNLYDSMESKPSVDSGTLEDNTYYTDLLQMKLDNLNKEIESTKGELSIQRMKALFESQRALDIERKLFANERCLQLSESENMKLRAKLDELKLKYEPEETVEVPVLKKRREVLPVDITTAKDACVNNSALGGEVYRLPPQKEETQSCPNSLEDNNLQLEKSVSIYTPVVSLSPHKNLPVDMQLKKEKKCVKLIGVPADAEALSERSGNTPNSPRLAAESKLQTEVKEGKETSSKLEKETCKKLHPILYVSSKSTPETQCPQQ
B7: NudE (protein, UniProt Q9NXR1 1-335)
chain: MEDSGKTFSSEEEEANYWKDLAMTYKQRAENTQEELREFQEGSREYEAELETQLQQIETRNRDLLSENNRLRMELETIKEKFEVQHSEGYRQISALEDDLAQTKAIKDQLQKYIRELEQANDDLERAKRATIMSLEDFEQRLNQAIERNAFLESELDEKENLLESVQRLKDEARDLRQELAVQQKQEKPRTPMPSSVEAERTDTAVQATGSVPSTPIAHRGPSSSLNTPGSFRRGLDDSTGGTPLTPAARISALNIVGDLLRKVGALESKLASCRNLVYDQSPNRTGGPASGRSSKNRDGGERRPSSTSVPLGDKGLDTSCRWLSKSTTRSSSSC
B8: Nudel (protein, UniProt Q9GZM8 1-345)
chain: MDGEDIPDFSSLKEETAYWKELSLKYKQSFQEARDELVEFQEGSRELEAELEAQLVQAEQRNRDLQADNQRLKYEVEALKEKLEHQYAQSYKQVSVLEDDLSQTRAIKEQLHKYVRELEQANDDLERAKRATIVSLEDFEQRLNQAIERNAFLESELDEKESLLVSVQRLKDEARDLRQELAVRERQQEVTRKSAPSSPTLDCEKMDSAVQASLSLPATPVGKGTENTFPSPKAIPNGFGTSPLTPSARISALNIVGDLLRKVGALESKLAACRNFAKDQASRKSYISGNVNCGVLNGNGTKFSRSGHTSFFDKGAVNGFDPAPPPPGLGSSRPSSAPGMLPLSV

Tests used:
mGFP–WDR34 (human) = mGFP–WDR34 (human) (UniProt Q96EX3); experiment: affinity purification with mass spectrometry; GFP nano-trap beads with lysates of serum-starved (24 h) hTERT-RPE1 cells stably expressing mGFP or mGFP–WDR34; 10 mM Tris-HCl pH 7.4, 50 mM NaCl, 0.5 mM EDTA, 1.0% IGEPAL lysis; 2 h at 4°C; interactome compared with that of mGFP
[1] = biological target: T1, mGFP–WDR34 (human), Q96EX3; experiment: as above; conditions: remark: other sources report otherwise

| Molecule | binding (mGFP–WDR34 (human)) | binding [1] |
| --- | --- | --- |
| Bicaudal 2 (from UniProt Q8TD16 1-824) | no binding | – |
| LC8-1 (from UniProt P63167 1-89) | binds | – |
| NudC (from UniProt Q9Y266 1-331) | binds | – |
| TCTEX1D2 (from UniProt Q8WW35 1-142) | binds | – |
| Tctex-1 (from UniProt P63172 1-113) | binds | – |
| WDR60 (from UniProt Q8WVS4 1-1066) | binds | – |
| dynein-2 heavy chain (DYNC2H1) (from UniProt Q8NCM8 1-4307) | binds | – |
| dynein-2 light intermediate chain subunit DYNC2LI1/LIC3 (from UniProt Q8TCX1 1-351) | binds | – |
| roadblock-1 (from UniProt Q9NP97 1-96) | binds | – |
| B1 | binds | – |
| B2 | – | binds |
| B3 | – | binds |
| B4 | no binding | – |
| B5 | no binding | – |
| B6 | no binding | – |
| B7 | no binding | – |
| B8 | no binding | – |
